Test results: PubChem BioAssay AID504467 (National Center for Advancing Translational Sciences (NCATS), 2011)
Among all 330,000 compounds or so, about 7,700 (2.3%) were called active. The inconclusive results got no clear call from the source; some entries with a clear call stand among them for comparison. The call rests on the fitted dose curve; in most records, active means well fitted inhibition curve with a large enough effect; inconclusive means small, poorly fitted or top-dose-only effect, or effect the other way; inactive means flat fitted curve, though single readings scatter. Potencies beside an inconclusive call are fits to weak or partial responses and may not hold up.

assay: qHTS screen for small molecules that inhibit ELG1-dependent DNA repair in human embryonic kidney (HEK293T) cells expressing luciferase-tagged ELG1; details: HEK293T ELG1-luciferase reporter, luminescence, 16 h, DNA damage induced by 5-fluorouridine; activity change, negative = inhibition: at 46.1 µM (top of the series); further: nearly all actives have a fitted effect of over 55% in size
Method in brief: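 Quantitative HTS, concentration-response format. 2,000 cells/well co-treated with 5-fluorouridine and compound, 16 hr in 5% CO2 at 37 °C; ONE-Glo luminescence read after 30 min.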
On the % scale 0 is the no-effect control and ±100 the full control effect; potency means the concentration at half of the fitted maximal effect.

Structure (SMILES) | Potency | activity change, negative = inhibition
CC(=O)NC(CC(=O)Nc1nc(-c2ccc(N(C)S(C)(=O)=O)cc2)cs1)c1ccccc1 (stereo unspecified) | inconclusive: 23.1 µM [inhibitor, partial curve, poor fit] | 
Cc1ccc(S(=O)(=O)N2CCOCC2)cc1NC(=O)COC(=O)c1ccccc1OCc1c(C)noc1C | inconclusive: 25.9 µM [inhibitor, partial curve, poor fit] | 
Cc1ccccc1-c1noc(-c2ccccc2F)n1 | inconclusive: 18.4 µM [activator, partial curve] | 
CN(CC(=O)NC(=O)NC1CCCCC1)CC(=O)Nc1ccc(OC(F)(F)F)cc1 | inconclusive: 29.1 µM [inhibitor, single point] | 
COc1ccc(NC(=O)/C=C/c2cccc(C(F)(F)F)c2)cn1 | active: 18.3 µM | 
Cc1ccc(-c2nc3cc(C)ccc3o2)cc1 | inconclusive: 0.461 µM [activator, full curve] | 
Nc1cc2ccncc2c2ccccc12 | active: 1.83 µM | 
COc1ccc(-c2nnc(Nc3ccc(CC(N)=O)cc3)c3ccccc23)cc1 | inconclusive: 32.6 µM [inhibitor, single point] | 
CC(/C=C/c1ccc(N(C)C)cc1)=N\N=C(/N)SC1CC(=O)N(c2ccc(C(=O)O)cc2)C1=O (stereo unspecified) | inconclusive: 20.6 µM [activator, partial curve] | 
N#Cc1c(NC(=O)COC(=O)c2ccc(O)cc2O)sc2c1CCC2 | inactive | 
CSc1ncc(Cl)c(C(=O)Nc2ccccc2Br)n1 | inactive | 
C/C(=N\Nc1cc(N2CCOCC2)nc(C)n1)c1ccc(F)cc1 | inconclusive: 8.91 µM [inhibitor, partial curve] | 
Cc1c(NCc2cc(Cl)ccc2O)c(=O)n(-c2ccccc2)n1C | inactive | 
C[n+]1ccn(CC(=O)c2cc(C(C)(C)C)c(O)c(C(C)(C)C)c2)c1 | inactive | 
CCN(Cc1cnn(C)c1)C(=O)c1cc(COc2cc(C)c(Cl)c(C)c2)on1 | inactive | 
CC(=O)Nc1ccc(C2=CC(=O)C[C@H](c3ccc(Cl)cc3)C2)cc1 | inconclusive: 23.1 µM [inhibitor, single point] | 
CC[n+]1ccccc1/C=C1\Sc2ccc(C)cc2N1C | active: 2.06 µM | 
O=C(CN1CCCCC1)Nc1nc(-c2ccc(F)c(F)c2)cs1 | inconclusive: 29.1 µM [inhibitor, single point] | 
O=C(CSC1=N/C(=C/c2ccco2)C(=O)N1c1ccc(OC(F)F)cc1)NC1CCS(=O)(=O)C1 (stereo unspecified) | inactive | 
COc1cc(CC(=O)OCc2cccc([N+](=O)[O-])c2)cc(OC)c1OC | inactive | 
COc1ccc(-n2ncc3c(NCC(C)C)ncnc32)cc1 | inconclusive: 1.46 µM [activator, partial curve] | 
O=C(NCCc1cccc(Cl)c1)c1ccc(Cl)c([N+](=O)[O-])c1 | inconclusive: 18.4 µM [activator, single point] | 
CC1CCC(NC(=O)COC(=O)CNC(=O)c2ccc3ccccc3c2)CC1 (stereo unspecified) | inconclusive: 29.1 µM [activator, single point] | 
Nc1ccc(C(=O)Nc2ccco2)cc1 | inconclusive: 20.6 µM [activator, single point] | 

Structure (SMILES) | Potency | activity change, negative = inhibition
O=c1oc(Nc2cccc(F)c2)nc2ccccc12 | inconclusive: 23.1 µM [activator, partial curve] | 
CCN1CCN(CCCNC(=O)C2CCCN(c3nc4c(C)cc(C)cc4s3)C2)CC1 (stereo unspecified) | inconclusive: 23.1 µM [activator, single point] | 
Cc1cccc2cc(C(c3nnnn3C3CCCC3)N3CCOCC3)c(=O)[nH]c12 (stereo unspecified) | inactive | 
COc1ccc(/C=C/C(=O)c2ccc(Cl)cc2)c(OC)c1 | inconclusive: 20.6 µM [activator, single point] | 
O=C(Nc1ccc(F)cc1F)c1ccc(S(=O)(=O)NCc2ccco2)cc1 | inactive | 
NC(=O)c1c(NC(=O)CSc2nc3c(c(C(F)(F)F)n2)CCc2ccccc2-3)sc2c1CCCC2 | inactive | 
Clc1cnc(N/N=C/c2ccco2)c(Cl)c1 | inconclusive: 1.46 µM [activator, partial curve] | 
C[C@H](CO)N1C[C@H](C)[C@@H](CN(C)C(=O)Nc2ccccc2)Oc2ccc(NS(=O)(=O)c3cn(C)cn3)cc2C1=O | inconclusive: 29.1 µM [activator, partial curve, poor fit] | 
O=C(NCc1ccc(F)cc1)c1cc2sccc2n1Cc1ccc(F)cc1 | inconclusive: 29.1 µM [inhibitor, single point] | 
CN(Cc1nc(-c2cccs2)no1)CC1COCCO1 (stereo unspecified) | inconclusive: 14.6 µM [activator, partial curve] | 
CCOC(=O)N1CCN(Cc2nc(-c3cccs3)no2)CC1 | inconclusive: 16.4 µM [activator, partial curve] | 
CCC(CO)Oc1cc(NC(=O)c2cccc3ccccc23)c2ncn(C(C)C)c2c1 (stereo unspecified) | active: 14.6 µM | 
COc1ccc(OCCNC(=O)/C=C/c2ccccc2)cc1 | inactive | 
N/C(=N\OC(=O)Cc1ccc(Cl)cc1)c1ccccn1 | inconclusive: 23.1 µM [activator, partial curve] | 
Cc1nn(-c2ccccc2)c(C)c1NC(=O)COc1ccc([N+](=O)[O-])cc1 | inconclusive: 3.66 µM [inhibitor, partial curve] | 
COc1ccc(C2C(C(=O)c3ccccc3)=C(C)Nc3nc4ccccc4n32)cc1OC (stereo unspecified) | inconclusive: 6.51 µM [activator, partial curve, poor fit] | 
COc1ccc(C(=O)N/C(=C\c2cc(OC)c(OC)cc2[N+](=O)[O-])C(=O)NCC(=O)O)cc1 | inactive | 
FC(F)(F)c1cc(Cl)c2nc(-c3ccccc3)cn2c1 | inconclusive: 4.61 µM [activator, partial curve] | 
COc1ccc(N2CCN(C(=O)c3ccc(C)c(NC(=O)C4=C(C)OCCS4)c3)CC2)cc1 | inconclusive: 20.6 µM [inhibitor, single point] | 
Cc1ccccc1OCCCc1c(C)n[nH]c1C | inconclusive: 23.1 µM [inhibitor, partial curve, poor fit] | 
O=C(Nc1ccccc1-c1ccccc1)C12CC3CC(CC(C3)C1)C2 | inconclusive: 29.1 µM [activator, single point] | 
CSc1nnc(N2C(=O)C(O)=C(C(=O)c3ccc(C)o3)C2c2ccc(C)cc2)s1 (stereo unspecified) | inconclusive: 0.58 µM [activator, full curve] | 
COC(=O)c1ccc(/C=N/NC(=O)c2ccccc2Cl)cc1 | inconclusive: 23.1 µM [activator, single point] | 
CCc1ccccc1NC(=O)COc1cccc(-n2cnnn2)c1 | inconclusive: 23.1 µM [inhibitor, partial curve, poor fit] | 

Two records drawn at random from the list so far:
Structure (SMILES) | Potency | activity change, negative = inhibition
C[n+]1ccn(CC(=O)c2cc(C(C)(C)C)c(O)c(C(C)(C)C)c2)c1 | inactive | 
CCC(CO)Oc1cc(NC(=O)c2cccc3ccccc23)c2ncn(C(C)C)c2c1 (stereo unspecified) | active: 14.6 µM | 

(further entries)

Structure (SMILES) | Potency | activity change, negative = inhibition
O=C(Cc1ccccc1)Nc1ccc(NC(=O)C2CCCCC2)nc1 | active: 5.17 µM | 
CC[N+]1(C)[C@@H]2CC[C@H]1CC(OC(=O)[C@H]1CCC(C(=O)OC3C[C@H]4CC[C@@H](C3)[N+]4(C)CC)(c3ccccc3)c3ccccc31)C2 (stereo partly specified) | inactive | 
CCOC(=O)C(C)Oc1ccccc1C1NC(=O)NC(C)=C1C(=O)Nc1ccc(C)c(C)c1 (stereo unspecified) | inconclusive: 20 µM [inhibitor, single point] | 
CC(=O)Nc1ccc(S(=O)(=O)NNc2ccc([N+](=O)[O-])cc2)cc1 | inactive | 
COc1ccccc1NC(=O)Nc1nc(CC(=O)N2CCN(c3ccc(F)cc3)CC2)cs1 | active: 16.4 µM | 
Cc1c(C(=O)N2CCN(c3ccccn3)CC2)oc2ccccc12 | inconclusive: 11.6 µM [inhibitor, single point] | 
Cc1ccc(-n2c(Cl)c(Cl)nc(Cl)c2=O)cc1 | active: 6.51 µM | 
COc1ccc(-c2c(C)nn3c(Cl)c(C)c(C)nc23)cc1 |  | inconclusive: 19.3% [activator]
CC(=O)NC(c1cc(Cl)c2cccnc2c1O)C(C)C (stereo unspecified) | inactive | 
CCOc1ccc(C(=O)NCc2ccco2)cc1OC | inactive | 
O=C(NC(=S)NCCSc1ccccc1)c1cccnc1 | inconclusive: 29.1 µM [activator, single point] | 
O=C(CSc1cccc2cccnc12)NCc1ccco1 | inactive | 
CCc1cc(C(=O)OC)c(NC(=O)CN2CCN(C(=O)c3ccco3)CC2)s1 | active: 10.3 µM | 
CCC/C(C#Cc1cc(OC)cc(OC)c1)=C1/c2ccccc2C(=O)N1c1ccccc1 | inactive | 
COc1ccc(N=c2sc3ccccc3n2C)cc1 | inconclusive: 9.2 µM [activator, partial curve] | 
Cc1ccc(C2(CCNC(C)c3cccs3)CCOC(C(C)C)C2)cc1 (stereo unspecified) | inactive | 
O=C(CSc1nnc(CNC(=O)c2cccs2)o1)Nc1cccc(F)c1 | inconclusive: 23.1 µM [activator, single point] | 
CCOC(=O)c1c(C)n(C(=O)c2ccco2)c(=O)n1C(=O)c1ccco1 | inconclusive: 29.1 µM [inhibitor, single point] | 
COC(=O)c1c(NC(=O)CN2CCN(C(=O)c3ccco3)CC2)c2c(C)cccc2n1C | inconclusive: 29.1 µM [inhibitor, single point] | 
CCC1C(=O)NCCN1C(=O)c1ccccc1OC1CCN(S(C)(=O)=O)CC1 (stereo unspecified) | inactive | 
CCC(=O)c1ccc(N2CCN(C(=O)c3cccs3)CC2)c(F)c1 | inconclusive: 14.6 µM [activator, partial curve] | 
COc1ccc(-n2nc(C(=O)NCCCN3CCCC3=O)c3c4ccccc4n(C)c3c2=O)cc1Cl | inconclusive: 3.66 µM [inhibitor, full curve] | 
c1cncc(-c2ccc3ncnc(NCc4cccs4)c3c2)c1 | inconclusive: 29.1 µM [inhibitor, single point] | 

Among those listed so far, 2 have an NH in an aromatic ring:
Structure (SMILES) | Potency | activity change, negative = inhibition
Cc1cccc2cc(C(c3nnnn3C3CCCC3)N3CCOCC3)c(=O)[nH]c12 (stereo unspecified) | inactive | 
Cc1ccccc1OCCCc1c(C)n[nH]c1C | inconclusive: 23.1 µM [inhibitor, partial curve, poor fit] | 
